From paper PMC12297659, “In situ structure of the mouse sperm central apparatus reveals mechanistic insights into asthenozoospermia” (Cell Research, 2025)
Read-outs that look alike come from different tables or passages of the source. These are yes or no findings as the source states them, for the method shown. Some entries that bind do so weakly or less than the wild type. One block for each molecule: values may come before it.

The chains behind the UniProt entries cited, without tags or fusion partners.
UniProt Q8K3V1: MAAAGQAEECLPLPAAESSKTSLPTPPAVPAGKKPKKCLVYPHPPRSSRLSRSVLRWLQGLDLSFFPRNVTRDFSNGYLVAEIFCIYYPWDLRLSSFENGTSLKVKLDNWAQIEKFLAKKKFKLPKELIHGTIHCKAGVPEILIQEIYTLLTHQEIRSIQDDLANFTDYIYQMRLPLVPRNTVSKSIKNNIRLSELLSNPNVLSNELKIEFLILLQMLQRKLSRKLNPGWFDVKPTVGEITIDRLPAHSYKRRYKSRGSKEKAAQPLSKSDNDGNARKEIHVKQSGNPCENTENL
UniProt A0A0G2JEB6: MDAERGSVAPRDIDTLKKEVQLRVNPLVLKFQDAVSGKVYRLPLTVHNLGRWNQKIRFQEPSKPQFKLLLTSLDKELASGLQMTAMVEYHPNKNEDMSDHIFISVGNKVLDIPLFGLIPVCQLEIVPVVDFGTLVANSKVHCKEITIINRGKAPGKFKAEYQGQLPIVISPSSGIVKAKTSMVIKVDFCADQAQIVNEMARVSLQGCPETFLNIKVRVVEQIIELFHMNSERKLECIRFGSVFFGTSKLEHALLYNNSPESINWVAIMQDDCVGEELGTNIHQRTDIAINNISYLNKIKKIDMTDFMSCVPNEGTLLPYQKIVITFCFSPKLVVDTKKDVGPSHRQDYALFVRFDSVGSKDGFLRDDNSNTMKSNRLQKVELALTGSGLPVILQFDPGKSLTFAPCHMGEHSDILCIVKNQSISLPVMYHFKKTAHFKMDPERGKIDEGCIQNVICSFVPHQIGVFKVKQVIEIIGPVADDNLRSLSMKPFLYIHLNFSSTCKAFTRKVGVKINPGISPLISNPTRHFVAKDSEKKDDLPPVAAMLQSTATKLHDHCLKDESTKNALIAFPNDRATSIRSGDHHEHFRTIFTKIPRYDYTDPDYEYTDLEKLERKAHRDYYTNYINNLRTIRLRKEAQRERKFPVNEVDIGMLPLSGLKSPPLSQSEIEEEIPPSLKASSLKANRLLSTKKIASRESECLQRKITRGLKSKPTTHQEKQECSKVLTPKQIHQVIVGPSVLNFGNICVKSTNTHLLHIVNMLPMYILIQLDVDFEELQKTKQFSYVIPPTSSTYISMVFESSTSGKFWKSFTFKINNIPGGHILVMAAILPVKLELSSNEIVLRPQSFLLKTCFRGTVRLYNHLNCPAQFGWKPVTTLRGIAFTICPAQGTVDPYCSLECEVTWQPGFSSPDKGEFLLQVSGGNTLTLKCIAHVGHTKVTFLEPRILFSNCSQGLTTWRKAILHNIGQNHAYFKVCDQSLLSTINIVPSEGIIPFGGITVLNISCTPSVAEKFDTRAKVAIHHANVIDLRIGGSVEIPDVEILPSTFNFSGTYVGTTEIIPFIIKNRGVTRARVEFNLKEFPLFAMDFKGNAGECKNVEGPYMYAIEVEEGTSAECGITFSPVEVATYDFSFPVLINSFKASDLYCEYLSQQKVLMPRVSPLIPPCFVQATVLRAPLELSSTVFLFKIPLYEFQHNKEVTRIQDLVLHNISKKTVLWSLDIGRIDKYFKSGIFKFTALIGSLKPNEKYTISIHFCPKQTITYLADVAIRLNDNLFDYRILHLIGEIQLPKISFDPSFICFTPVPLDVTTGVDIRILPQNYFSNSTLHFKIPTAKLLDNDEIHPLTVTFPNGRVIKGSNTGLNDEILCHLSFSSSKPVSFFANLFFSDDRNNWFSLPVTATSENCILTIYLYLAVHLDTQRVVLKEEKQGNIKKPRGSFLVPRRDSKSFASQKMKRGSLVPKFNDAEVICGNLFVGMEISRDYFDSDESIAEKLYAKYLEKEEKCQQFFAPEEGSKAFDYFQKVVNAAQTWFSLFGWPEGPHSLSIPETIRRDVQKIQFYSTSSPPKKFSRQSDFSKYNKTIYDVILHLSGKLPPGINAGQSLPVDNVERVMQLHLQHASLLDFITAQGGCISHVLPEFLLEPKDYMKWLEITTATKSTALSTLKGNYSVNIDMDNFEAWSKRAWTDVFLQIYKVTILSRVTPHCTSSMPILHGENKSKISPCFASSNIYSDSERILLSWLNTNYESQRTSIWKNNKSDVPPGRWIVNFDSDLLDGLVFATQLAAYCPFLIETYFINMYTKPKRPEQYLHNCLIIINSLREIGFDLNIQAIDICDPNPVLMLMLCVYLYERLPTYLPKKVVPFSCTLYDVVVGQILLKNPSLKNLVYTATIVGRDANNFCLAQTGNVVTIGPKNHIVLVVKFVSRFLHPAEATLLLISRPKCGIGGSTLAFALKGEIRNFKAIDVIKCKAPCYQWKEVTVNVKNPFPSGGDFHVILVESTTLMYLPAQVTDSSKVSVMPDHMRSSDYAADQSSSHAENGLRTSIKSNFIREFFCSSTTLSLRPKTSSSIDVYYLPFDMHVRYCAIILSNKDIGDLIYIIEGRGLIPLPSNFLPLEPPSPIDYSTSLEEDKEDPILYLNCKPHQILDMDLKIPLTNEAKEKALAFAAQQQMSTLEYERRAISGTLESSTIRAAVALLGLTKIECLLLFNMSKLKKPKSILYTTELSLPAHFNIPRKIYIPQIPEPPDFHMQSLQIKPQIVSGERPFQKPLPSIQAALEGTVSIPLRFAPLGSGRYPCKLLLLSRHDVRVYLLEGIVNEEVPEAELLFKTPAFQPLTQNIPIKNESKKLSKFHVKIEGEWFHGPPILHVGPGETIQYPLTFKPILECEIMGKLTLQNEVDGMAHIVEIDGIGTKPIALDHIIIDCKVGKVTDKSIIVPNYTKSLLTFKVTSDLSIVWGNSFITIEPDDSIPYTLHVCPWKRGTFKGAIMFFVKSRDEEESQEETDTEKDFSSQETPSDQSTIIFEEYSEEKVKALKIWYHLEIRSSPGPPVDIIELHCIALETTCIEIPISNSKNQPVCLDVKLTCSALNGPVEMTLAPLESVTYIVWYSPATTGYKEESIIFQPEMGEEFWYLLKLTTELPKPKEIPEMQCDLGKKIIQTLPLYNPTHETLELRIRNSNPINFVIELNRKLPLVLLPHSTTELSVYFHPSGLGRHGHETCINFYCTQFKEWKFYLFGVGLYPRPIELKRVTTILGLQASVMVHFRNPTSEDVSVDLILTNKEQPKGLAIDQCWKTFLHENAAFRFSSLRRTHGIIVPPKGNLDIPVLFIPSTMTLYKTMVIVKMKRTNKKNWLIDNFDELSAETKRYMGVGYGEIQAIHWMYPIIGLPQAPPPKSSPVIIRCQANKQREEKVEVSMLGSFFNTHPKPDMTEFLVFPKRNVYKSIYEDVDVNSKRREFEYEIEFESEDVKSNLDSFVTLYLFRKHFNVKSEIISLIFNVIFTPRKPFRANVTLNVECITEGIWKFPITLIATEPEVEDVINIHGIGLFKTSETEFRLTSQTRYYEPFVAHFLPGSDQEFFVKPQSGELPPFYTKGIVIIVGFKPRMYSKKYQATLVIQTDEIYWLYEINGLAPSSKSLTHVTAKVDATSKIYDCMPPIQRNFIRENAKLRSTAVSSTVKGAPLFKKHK
UniProt Q8C9J3: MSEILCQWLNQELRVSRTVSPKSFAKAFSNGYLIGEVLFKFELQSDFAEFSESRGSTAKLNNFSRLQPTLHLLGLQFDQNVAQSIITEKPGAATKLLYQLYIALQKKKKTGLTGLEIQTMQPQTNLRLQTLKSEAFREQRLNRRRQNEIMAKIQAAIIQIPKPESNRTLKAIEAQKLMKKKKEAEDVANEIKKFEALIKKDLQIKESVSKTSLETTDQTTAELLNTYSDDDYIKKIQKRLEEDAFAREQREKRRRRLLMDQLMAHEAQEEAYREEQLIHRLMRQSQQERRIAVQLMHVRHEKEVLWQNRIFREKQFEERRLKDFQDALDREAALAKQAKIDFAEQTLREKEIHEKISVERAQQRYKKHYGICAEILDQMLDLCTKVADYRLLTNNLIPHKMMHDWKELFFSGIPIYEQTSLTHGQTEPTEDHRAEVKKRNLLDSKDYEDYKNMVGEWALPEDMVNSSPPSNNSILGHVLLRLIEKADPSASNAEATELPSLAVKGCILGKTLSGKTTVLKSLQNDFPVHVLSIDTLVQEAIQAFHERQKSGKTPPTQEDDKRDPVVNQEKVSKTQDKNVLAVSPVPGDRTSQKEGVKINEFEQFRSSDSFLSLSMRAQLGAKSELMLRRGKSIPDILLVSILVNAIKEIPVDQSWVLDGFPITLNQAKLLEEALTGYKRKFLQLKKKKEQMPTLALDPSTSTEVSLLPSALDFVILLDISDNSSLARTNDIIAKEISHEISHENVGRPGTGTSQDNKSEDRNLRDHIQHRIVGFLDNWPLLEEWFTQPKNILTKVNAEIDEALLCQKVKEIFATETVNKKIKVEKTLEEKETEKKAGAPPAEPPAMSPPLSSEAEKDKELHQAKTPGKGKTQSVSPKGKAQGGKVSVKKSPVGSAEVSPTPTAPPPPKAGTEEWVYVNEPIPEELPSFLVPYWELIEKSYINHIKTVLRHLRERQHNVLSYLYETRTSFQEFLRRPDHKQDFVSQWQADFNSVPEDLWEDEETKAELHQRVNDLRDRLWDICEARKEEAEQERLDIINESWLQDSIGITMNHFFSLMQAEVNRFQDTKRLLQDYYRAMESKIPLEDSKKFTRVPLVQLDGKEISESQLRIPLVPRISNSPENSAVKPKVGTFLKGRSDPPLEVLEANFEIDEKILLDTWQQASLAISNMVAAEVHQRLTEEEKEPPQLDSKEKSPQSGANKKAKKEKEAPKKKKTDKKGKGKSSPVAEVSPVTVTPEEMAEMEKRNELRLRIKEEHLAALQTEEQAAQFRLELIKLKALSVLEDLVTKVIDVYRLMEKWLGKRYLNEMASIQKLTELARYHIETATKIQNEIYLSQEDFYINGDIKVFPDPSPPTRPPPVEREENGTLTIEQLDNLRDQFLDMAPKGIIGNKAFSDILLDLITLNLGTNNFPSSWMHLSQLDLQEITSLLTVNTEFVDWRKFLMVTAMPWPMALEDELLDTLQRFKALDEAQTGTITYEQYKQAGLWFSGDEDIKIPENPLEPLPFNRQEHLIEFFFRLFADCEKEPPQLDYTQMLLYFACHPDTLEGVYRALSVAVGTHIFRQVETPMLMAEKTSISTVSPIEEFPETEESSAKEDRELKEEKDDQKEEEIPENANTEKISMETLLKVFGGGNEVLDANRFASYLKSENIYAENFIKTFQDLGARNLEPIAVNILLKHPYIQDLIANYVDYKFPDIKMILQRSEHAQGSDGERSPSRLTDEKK

Key:
Assay in all cases: cryo-EM structure; in situ cryo-electron tomography with subtomogram averaging of about 200 nm cryo-FIB lamellae of wild-type mouse sperm; local maps of 5.5 Å to 18 Å; AlphaFold2 models fitted into the density
[1] = target: T1, SPAG16 (mouse (endogenous in sperm)) (UniProt Q8K450)
T1 sequence: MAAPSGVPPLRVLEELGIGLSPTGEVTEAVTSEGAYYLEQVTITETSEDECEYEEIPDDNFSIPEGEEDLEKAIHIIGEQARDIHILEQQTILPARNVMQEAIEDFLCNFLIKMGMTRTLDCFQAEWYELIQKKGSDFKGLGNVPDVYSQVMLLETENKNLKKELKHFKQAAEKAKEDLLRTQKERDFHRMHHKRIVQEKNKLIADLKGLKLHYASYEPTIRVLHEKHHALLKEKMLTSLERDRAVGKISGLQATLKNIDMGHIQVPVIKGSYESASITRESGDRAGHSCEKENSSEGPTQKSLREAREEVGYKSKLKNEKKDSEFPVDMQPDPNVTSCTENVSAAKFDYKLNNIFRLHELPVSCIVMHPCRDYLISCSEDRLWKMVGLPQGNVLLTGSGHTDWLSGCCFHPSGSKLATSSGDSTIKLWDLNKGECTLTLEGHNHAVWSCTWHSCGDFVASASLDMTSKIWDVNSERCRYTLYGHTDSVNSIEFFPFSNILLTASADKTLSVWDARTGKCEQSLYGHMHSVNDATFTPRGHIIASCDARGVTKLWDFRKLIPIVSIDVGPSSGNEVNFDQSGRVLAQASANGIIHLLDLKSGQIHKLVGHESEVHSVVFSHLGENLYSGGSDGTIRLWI

[2] = target: T2, CFAP69 (mouse (endogenous in sperm)) (UniProt Q8BH53)
T2 sequence: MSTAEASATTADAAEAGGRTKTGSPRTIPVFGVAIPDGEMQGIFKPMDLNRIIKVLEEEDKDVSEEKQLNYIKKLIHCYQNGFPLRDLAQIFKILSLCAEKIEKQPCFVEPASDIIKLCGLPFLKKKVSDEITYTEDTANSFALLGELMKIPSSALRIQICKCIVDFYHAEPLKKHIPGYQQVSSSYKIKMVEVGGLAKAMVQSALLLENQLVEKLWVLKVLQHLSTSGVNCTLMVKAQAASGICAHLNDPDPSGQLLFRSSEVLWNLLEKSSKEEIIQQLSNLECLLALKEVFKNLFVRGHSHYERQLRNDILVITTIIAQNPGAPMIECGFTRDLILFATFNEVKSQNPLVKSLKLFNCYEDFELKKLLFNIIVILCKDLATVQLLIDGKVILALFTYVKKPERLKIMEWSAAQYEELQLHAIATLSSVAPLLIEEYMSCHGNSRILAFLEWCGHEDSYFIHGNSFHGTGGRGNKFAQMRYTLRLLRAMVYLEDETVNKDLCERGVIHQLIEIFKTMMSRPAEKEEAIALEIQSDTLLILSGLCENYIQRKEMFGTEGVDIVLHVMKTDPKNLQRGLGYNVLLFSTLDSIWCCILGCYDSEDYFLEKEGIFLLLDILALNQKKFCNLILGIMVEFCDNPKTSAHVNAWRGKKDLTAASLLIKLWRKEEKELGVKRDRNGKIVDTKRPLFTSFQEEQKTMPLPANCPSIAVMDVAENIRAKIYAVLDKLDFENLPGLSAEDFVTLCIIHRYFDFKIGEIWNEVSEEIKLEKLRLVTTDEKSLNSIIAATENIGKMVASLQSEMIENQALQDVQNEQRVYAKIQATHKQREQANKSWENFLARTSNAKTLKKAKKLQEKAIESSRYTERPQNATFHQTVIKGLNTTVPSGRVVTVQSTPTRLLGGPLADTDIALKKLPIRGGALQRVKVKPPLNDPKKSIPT

[3] = target: HYDIN (mouse (endogenous in sperm)) (UniProt Q80W93)
[4] = target: T3, LRGUK (mouse (endogenous in sperm)) (UniProt Q9D5S7)
T3 sequence: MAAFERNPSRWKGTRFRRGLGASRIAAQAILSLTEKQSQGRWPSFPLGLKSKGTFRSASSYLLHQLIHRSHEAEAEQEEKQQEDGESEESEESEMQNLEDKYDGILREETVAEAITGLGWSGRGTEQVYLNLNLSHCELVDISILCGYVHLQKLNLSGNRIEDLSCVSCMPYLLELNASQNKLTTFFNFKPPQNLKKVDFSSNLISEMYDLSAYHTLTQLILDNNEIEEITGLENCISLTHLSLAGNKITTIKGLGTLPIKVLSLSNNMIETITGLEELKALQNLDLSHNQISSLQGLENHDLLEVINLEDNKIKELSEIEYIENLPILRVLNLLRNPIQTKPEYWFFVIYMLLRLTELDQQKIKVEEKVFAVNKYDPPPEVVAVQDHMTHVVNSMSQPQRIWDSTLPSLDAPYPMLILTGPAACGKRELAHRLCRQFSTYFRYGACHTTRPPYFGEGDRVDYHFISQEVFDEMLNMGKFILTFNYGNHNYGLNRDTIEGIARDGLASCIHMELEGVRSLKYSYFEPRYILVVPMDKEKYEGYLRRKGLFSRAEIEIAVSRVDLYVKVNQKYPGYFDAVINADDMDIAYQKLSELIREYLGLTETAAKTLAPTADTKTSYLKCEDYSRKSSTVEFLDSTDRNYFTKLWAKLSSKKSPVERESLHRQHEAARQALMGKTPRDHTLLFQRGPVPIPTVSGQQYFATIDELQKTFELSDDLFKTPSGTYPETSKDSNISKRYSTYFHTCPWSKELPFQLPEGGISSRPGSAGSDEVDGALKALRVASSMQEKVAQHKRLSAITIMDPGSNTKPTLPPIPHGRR

[5] = target: T4, SPAG6 (mouse (endogenous in sperm)) (UniProt Q9JLI7)
T4 sequence: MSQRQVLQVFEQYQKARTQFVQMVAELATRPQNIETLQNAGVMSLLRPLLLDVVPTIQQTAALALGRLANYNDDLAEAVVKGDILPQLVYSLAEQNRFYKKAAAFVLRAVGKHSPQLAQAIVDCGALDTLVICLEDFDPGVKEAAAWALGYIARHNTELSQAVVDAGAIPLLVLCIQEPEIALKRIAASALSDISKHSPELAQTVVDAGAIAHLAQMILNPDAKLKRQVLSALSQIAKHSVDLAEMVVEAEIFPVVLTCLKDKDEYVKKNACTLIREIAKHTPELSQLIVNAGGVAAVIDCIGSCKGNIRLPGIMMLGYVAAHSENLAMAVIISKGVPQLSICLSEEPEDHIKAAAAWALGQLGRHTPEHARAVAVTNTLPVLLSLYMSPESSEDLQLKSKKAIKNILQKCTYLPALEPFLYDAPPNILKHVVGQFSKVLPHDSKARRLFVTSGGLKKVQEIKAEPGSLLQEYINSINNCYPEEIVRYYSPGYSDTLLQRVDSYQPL

[6] = target: T4, SPAG6 (mouse (endogenous in sperm)); remark: listed apart in the source
[7] = target: SPATA4 (mouse (endogenous in sperm)) (UniProt Q8K3V1)
[8] = target: CFAP65 (mouse (endogenous in sperm)) (UniProt Q3V0B4)

Molecule: CFAP47 (from UniProt A0A0G2JEB6 1-3184)
- binding [1]: binds

B3: KIF9 (protein, UniProt Q9WV04 1-790)
chain: MGTRKKVQAFVRVRPTDDFAHEMIKYGEDNKSIDIHLKKDTRRGVVNNQQTDWSFKLDGVLHNASQDLVYETVAKDAVSQALDGYNGTIMCYGQTGAGKTYTMTGATENYKHRGILPRALQQVFRMIEERPTHAITVRVSYLEIYNENLFDLLSTLPYVGPSVTPMTIVENPQGIFIKGLSVHLTSQEEDAFSLLFEGETNRIIASHTMNKNSSRSHCIFTIYMEAHSRTLSDEKYITSKINLVDLAGSERLSKTGSEGRVLKEATYINKSLSFLEQAIIALGDQNRDHVPFRQSKLTHALKDSLGGNCNMVLVTNIYGEAAQLDETLSSLRFASRMKLVTTEPAINEKYDAERMVKNLEKELALLKQELAIHDSLSNRTLVNYDPMDEIQIAEINSQVRRYLEGTLDEIDIINLRQIQEVFNQFRVVLSQQEQEVESALRRKYTLIDKNDFAAISAVQKVGLMDIEGNLVGEPDGQSFGLGVAPFSVKPGKKPKTKKTPKDQFSSSARKEGASSPVSGKDFDVASISKTQLIPSSKDGDLKDMLARERETSSIEPLISDSPKEELRAPRPSTPPSRTVAFEEFKNERGSEINRIFKENKSILNERKKRASETTQRINAIKQEIDETKDALNFQKSLREKQGEYENKGLMIIDEEEFLLILKLKDLKKQYRNEYQELRDLRAEIQYCQRLVDQCRHRLLMEFDIWYNESFMIPEDVQVALKLGSSIRPGMVPISRIVCLGEDDQDRFSHLQQTVLPEGLDSITFYNAKVKTDQKHNYMKTMVGLQQSHRK
- binding [8]: binds

Continued, values first:

- binding [2]: binds
- binding [3]: binds
- binding [4]: binds
- binding [5]: binds
Molecule: SPEF2 (from UniProt Q8C9J3 1-1724)

- binding [6]: binds
B1: SPATA17 (protein, UniProt Q9D552 1-379)
chain: METNSNNFGELQELKDMATLAKLLARAPFLESQYYFRNRAVDSFRKFENDAAVMIQSWFRGCQVRAYMRHLNRVVTIIQKWWRSYLGRKFYQLVVEAAYYTMKMNLYNEMAVRIQRRWRGFRIRKYCFNYYYLKEYLRAVSETNDAIREALEEFAEMKEREERKVLLEREEKQKDYQARKMHYLLSTKQISGIYNSPFREHPDPWELRLQKAKPLGHQKYTAEKGKTSQSPSNWLACTSVHSFPQSESLPPISRKRCQGPFRDINEVLEQRYKPLEPTLRVAEPINHLRLAREAFKQEERMRNVQDKMFLPFSSYHKKEKYIPMIHSSSAYNSDSYGQKHFRSQDSKKWISDKDFQTVLPSFQLFSKYGKLYSKAGEIV

- binding [7]: binds
B2: SPAG16 (natural protein, mouse (endogenous in sperm), UniProt Q8K450 1-639, looked up)
chain: MAAPSGVPPLRVLEELGIGLSPTGEVTEAVTSEGAYYLEQVTITETSEDECEYEEIPDDNFSIPEGEEDLEKAIHIIGEQARDIHILEQQTILPARNVMQEAIEDFLCNFLIKMGMTRTLDCFQAEWYELIQKKGSDFKGLGNVPDVYSQVMLLETENKNLKKELKHFKQAAEKAKEDLLRTQKERDFHRMHHKRIVQEKNKLIADLKGLKLHYASYEPTIRVLHEKHHALLKEKMLTSLERDRAVGKISGLQATLKNIDMGHIQVPVIKGSYESASITRESGDRAGHSCEKENSSEGPTQKSLREAREEVGYKSKLKNEKKDSEFPVDMQPDPNVTSCTENVSAAKFDYKLNNIFRLHELPVSCIVMHPCRDYLISCSEDRLWKMVGLPQGNVLLTGSGHTDWLSGCCFHPSGSKLATSSGDSTIKLWDLNKGECTLTLEGHNHAVWSCTWHSCGDFVASASLDMTSKIWDVNSERCRYTLYGHTDSVNSIEFFPFSNILLTASADKTLSVWDARTGKCEQSLYGHMHSVNDATFTPRGHIIASCDARGVTKLWDFRKLIPIVSIDVGPSSGNEVNFDQSGRVLAQASANGIIHLLDLKSGQIHKLVGHESEVHSVVFSHLGENLYSGGSDGTIRLWI
notes: SPAG16, mouse, with a coiled-coil domain and a C-terminal β-propeller domain; Adjacent copies dimerise through the coiled-coil domain; also called PF20 homolog; source: endogenous, in intact mouse sperm (cryo-FIB lamellae)
